This passage reports binding results from publication PMC10431718.

Chains of the proteins cited; added tags and fusions are not shown.
UniProt P08238: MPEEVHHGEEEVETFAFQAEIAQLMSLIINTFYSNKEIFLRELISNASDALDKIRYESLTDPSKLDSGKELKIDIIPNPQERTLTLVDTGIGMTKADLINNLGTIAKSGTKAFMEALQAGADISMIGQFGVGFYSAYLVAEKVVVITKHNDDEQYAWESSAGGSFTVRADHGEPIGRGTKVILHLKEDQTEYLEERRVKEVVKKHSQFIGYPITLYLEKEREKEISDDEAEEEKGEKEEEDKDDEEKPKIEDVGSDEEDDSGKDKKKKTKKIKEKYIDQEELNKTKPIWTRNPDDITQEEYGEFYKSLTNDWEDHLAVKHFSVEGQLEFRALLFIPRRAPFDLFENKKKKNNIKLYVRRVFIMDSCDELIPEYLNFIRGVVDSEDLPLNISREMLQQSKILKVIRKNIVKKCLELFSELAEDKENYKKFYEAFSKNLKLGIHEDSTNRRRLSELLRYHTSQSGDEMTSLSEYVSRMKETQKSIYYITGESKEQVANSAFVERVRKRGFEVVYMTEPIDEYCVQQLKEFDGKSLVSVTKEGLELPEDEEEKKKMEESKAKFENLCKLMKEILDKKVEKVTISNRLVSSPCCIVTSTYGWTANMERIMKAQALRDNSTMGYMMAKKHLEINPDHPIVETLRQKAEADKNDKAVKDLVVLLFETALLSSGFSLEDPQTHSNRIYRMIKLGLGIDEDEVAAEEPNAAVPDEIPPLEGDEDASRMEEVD
UniProt P0DMV8: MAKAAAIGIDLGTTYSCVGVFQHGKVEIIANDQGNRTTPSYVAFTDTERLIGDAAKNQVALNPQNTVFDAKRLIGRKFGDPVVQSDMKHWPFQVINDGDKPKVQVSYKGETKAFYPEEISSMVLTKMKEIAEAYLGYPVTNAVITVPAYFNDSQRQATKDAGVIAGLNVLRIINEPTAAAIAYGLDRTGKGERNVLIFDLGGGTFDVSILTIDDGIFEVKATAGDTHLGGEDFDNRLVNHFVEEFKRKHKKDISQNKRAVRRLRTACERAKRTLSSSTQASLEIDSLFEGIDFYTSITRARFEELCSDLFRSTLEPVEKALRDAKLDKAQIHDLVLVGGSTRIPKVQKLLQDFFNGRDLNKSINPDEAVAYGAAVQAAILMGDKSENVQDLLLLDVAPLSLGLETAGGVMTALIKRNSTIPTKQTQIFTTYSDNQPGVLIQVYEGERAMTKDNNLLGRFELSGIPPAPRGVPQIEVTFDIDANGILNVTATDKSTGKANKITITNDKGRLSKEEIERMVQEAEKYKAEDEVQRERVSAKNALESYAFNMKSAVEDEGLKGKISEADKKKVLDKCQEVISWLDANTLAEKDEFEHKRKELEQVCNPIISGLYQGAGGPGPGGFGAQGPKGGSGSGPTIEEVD
UniProt P11142: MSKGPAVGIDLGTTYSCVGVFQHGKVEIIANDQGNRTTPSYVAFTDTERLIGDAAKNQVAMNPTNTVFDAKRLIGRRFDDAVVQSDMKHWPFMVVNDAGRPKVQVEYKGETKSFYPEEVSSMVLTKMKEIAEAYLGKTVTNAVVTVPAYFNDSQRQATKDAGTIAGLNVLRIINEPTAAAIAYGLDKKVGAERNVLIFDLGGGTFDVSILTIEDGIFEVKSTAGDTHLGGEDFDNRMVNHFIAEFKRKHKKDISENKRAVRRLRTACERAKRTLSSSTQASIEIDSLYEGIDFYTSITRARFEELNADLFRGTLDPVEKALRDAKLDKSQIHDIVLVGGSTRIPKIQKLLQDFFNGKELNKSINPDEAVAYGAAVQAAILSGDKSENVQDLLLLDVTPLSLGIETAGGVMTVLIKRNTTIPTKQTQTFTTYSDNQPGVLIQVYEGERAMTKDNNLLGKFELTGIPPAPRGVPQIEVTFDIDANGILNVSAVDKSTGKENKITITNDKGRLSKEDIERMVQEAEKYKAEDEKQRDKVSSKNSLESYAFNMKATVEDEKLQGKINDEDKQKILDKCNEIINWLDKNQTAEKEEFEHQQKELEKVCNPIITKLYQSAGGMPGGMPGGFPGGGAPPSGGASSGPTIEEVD
UniProt Q00610: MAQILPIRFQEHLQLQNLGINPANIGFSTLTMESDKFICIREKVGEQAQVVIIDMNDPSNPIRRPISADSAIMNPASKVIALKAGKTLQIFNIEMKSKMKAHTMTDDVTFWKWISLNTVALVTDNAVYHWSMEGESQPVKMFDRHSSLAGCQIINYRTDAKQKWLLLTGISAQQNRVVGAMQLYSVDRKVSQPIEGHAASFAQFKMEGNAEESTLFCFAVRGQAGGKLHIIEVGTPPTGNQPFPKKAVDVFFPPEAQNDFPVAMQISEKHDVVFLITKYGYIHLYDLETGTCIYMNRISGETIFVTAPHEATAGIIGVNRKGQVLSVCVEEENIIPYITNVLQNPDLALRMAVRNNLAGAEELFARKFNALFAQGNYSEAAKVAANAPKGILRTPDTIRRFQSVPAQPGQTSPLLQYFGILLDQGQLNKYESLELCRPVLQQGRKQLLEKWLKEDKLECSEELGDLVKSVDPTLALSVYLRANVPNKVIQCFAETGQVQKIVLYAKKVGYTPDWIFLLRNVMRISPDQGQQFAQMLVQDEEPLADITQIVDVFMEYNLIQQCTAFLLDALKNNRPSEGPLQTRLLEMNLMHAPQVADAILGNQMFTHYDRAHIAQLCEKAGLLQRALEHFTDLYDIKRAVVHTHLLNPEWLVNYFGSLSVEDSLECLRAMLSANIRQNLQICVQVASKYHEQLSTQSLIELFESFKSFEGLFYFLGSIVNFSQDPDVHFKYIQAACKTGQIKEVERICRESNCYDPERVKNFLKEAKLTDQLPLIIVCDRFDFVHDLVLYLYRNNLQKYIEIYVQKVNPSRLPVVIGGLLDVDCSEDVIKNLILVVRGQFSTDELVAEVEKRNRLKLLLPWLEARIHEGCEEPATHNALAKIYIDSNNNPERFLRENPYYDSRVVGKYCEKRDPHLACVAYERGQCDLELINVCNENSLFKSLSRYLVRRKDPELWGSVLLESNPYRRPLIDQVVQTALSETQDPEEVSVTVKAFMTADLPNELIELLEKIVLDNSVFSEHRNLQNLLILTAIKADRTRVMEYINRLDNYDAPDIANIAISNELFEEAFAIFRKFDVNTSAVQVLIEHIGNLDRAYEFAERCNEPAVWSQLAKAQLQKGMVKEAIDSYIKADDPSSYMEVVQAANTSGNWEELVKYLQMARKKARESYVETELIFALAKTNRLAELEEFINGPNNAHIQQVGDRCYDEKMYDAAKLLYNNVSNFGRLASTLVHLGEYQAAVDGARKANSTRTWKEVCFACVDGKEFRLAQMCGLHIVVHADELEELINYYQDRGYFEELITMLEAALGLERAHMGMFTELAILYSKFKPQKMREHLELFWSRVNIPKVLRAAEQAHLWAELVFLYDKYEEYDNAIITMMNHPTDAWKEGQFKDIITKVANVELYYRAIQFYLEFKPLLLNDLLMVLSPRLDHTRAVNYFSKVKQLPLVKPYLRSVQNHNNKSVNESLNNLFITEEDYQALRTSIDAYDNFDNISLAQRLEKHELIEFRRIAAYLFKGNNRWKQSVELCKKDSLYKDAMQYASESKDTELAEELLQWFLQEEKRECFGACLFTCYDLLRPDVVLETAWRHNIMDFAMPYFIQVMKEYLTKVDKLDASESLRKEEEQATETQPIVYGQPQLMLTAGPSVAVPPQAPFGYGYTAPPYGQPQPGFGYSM
UniProt O00410: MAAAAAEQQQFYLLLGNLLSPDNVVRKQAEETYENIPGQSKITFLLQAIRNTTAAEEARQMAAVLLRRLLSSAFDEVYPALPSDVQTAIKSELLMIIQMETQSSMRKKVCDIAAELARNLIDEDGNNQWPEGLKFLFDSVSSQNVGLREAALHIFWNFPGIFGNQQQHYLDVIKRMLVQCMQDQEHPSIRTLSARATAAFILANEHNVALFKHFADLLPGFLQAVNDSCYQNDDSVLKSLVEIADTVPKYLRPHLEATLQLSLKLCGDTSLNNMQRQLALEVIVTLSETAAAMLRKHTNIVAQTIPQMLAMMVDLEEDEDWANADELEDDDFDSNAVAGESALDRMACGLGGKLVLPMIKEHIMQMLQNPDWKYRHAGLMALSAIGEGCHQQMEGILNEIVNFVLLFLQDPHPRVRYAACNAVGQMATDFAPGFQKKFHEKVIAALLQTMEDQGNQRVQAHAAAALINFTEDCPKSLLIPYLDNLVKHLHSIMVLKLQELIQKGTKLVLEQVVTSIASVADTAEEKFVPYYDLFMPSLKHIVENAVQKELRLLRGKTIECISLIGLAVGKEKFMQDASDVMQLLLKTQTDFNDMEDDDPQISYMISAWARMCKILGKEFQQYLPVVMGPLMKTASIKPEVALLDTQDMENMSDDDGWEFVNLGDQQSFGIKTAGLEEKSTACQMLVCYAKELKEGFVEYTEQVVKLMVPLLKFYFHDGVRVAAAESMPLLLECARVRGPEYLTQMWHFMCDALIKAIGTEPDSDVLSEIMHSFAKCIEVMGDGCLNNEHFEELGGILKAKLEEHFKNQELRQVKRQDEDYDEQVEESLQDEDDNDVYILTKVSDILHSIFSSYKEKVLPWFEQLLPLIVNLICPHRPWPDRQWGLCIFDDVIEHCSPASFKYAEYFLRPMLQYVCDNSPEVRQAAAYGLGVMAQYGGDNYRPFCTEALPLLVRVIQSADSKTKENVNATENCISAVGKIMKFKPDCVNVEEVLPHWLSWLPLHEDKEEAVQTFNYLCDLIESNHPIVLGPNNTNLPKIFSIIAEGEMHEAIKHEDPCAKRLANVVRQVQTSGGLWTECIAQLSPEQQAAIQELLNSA
UniProt Q14974: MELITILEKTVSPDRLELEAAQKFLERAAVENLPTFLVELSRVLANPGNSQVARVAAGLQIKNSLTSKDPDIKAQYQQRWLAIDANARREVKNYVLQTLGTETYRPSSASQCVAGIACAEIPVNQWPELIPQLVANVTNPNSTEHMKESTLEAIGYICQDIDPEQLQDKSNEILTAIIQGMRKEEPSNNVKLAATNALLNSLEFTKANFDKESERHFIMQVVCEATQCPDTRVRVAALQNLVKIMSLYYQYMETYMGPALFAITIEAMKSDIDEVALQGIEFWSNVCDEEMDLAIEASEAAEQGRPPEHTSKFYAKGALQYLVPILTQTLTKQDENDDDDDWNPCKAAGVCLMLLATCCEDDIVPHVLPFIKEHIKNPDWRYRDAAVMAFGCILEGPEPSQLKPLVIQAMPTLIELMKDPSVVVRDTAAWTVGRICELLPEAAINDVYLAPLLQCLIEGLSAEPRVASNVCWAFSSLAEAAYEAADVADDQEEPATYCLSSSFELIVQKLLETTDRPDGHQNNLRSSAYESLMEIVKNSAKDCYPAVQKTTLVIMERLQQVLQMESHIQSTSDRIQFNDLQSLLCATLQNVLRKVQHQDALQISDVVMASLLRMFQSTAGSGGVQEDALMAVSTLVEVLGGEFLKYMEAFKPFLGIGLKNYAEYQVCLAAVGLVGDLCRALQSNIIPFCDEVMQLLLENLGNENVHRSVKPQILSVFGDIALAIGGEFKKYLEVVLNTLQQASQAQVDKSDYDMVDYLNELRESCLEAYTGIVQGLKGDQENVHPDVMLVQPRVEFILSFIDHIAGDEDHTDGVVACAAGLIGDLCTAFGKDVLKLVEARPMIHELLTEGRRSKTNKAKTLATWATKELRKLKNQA
UniProt P68363: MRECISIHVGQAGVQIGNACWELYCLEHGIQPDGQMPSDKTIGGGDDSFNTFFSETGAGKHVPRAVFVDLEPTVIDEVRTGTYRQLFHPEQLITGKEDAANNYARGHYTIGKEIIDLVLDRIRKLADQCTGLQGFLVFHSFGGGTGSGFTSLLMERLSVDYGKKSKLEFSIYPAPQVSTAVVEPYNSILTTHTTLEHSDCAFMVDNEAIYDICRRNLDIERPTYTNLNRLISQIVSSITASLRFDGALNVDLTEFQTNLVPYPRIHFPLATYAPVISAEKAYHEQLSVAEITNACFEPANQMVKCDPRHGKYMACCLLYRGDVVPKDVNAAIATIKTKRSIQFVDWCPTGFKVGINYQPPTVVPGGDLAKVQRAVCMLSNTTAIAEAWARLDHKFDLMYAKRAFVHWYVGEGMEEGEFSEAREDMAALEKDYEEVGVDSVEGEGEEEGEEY

No constants are given. Whether binding was seen depends on the method and setting. In cells and extracts the contact can be indirect. These calls come from enrichment with a bait or labelling near it, and not all partners need be listed. For some of these results: A no says only that the protein was not detected with the bait. Tags and fused reporters may be left off the sequences shown.

Assay [1] addresses T1, hemagglutinin (HA)-tagged NEK1 (NIMA-related kinase 1) (human) (UniProt Q96PY6).
T1 sequence: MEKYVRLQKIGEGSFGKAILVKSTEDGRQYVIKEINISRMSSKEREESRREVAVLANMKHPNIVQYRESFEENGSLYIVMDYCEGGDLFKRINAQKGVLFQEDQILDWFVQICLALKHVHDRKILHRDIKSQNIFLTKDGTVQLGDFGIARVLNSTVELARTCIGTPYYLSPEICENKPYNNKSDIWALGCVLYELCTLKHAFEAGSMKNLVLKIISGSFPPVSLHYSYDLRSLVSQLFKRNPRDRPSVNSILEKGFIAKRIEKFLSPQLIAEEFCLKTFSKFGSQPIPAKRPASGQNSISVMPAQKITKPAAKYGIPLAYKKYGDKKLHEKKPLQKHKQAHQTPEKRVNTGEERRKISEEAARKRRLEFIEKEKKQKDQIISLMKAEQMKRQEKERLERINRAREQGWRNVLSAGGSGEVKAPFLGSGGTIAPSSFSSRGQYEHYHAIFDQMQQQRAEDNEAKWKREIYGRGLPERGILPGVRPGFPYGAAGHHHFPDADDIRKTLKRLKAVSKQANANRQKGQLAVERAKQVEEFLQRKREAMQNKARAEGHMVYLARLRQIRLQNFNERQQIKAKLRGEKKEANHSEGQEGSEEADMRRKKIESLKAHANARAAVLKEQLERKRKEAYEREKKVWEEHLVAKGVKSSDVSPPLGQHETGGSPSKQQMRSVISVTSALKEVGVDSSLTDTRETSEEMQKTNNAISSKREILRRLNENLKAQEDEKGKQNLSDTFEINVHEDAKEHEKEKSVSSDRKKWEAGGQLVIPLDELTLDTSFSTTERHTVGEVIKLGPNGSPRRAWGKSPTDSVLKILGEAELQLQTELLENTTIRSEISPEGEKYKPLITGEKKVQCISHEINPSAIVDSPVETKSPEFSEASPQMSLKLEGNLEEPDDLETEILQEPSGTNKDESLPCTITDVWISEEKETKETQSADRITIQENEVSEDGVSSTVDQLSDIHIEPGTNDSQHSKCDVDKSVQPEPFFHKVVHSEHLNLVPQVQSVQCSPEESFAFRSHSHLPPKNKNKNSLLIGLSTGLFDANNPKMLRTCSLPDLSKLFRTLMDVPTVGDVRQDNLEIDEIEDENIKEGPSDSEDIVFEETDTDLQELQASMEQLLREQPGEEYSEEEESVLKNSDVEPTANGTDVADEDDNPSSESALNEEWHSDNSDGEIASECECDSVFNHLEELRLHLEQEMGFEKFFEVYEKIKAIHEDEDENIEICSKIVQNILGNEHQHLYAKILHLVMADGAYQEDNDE
Description: affinity purification with mass spectrometry; HA-NEK1 expressed in HEK293FT cells; cells cross-linked with the reversible crosslinker DSP (1 mM, 30 min, room temperature) before lysis; immunoprecipitation with anti-HA on Protein A Dynabeads, IgG control; LC-MS/MS; six independent biological replicates.

Assay [2] concerns the target T2, hemagglutinin (HA)-tagged NEK1 (NIMA-related kinase 1) (human), Q96PY6.
T2 chain: T1 sequence
The assay is described as above. The note with it: remark: other sources report otherwise.

For the molecule HSP90AB1 (from UniProt P08238 1-724), the binding result in assay [1] was “binds”. Same read-out and setting: with HSPA1A (from UniProt P0DMV8 1-641) the entry was “binds”; with HSPA8 (from UniProt P11142 1-646), “binds”. Same read-out and setting: with “clathrin heavy chain 1 (CLTC) (from UniProt Q00610 1-1675)” the entry was “binds”; with “elongation factor 1-α (EF1a) (human (endogenous in HEK293FT))”, “binds”. Same read-out and setting: with “importin-5 (IPO5) (from UniProt O00410 1-1097)” the entry was “binds”. As for “importin-β1 (KPNB1), endogenous in HEK293FT cells (from UniProt Q14974 1-876)”, the binding entry in assay [1] was “binds”. In the case of “myosin 9 (MYH9) (from UniProt P35579 1-1960)”, the binding entry in assay [1] is on record as “binds”. On the same count and under the same terms, with “α-tubulin (TUBA1B) (from UniProt P68363 1-451)” the entry was “binds”.

B1: C21ORF2, O43822 1-256 (protein)
chain: MKLTRKMVLTRAKASELHSVRKLNCWGSRLTDISICQEMPSLEVITLSVNSISTLEPVSRCQRLSELYLRRNRIPSLAELFYLKGLPRLRVLWLAENPCCGTSPHRYRMTVLRTLPRLQKLDNQAVTEEELSRALSEGEEITAAPEREGTGHGGPKLCCTLSSLSSAAETGRDPLDSEEEATSGAQDERGLKPPSRGQFPSLSARDASSSHRGRNVLTAILLLLRELDAEGLEAVQQTVGSRLQALRGEEVQEHAE
Regarding B1, in assay [2], the binding result is “no binding”.
